# Assay results: PubChem BioAssay AID330 (DTP/NCI, 2004)
# The list shows only some results of the screen, not a fair sample: it gathers tests that were run many times, whatever their T/C, doses with no T/C, and many T/C values between a quarter and a half above the control. Further doses and runs are listed elsewhere. T/C gives the treated animals as a percentage of the vehicle group. Some doses have a count of surviving animals in place of a T/C: the source files T/C as zero there, which appears to mark a toxic dose or a test without result, not a measured value. Some survivor counts are full or nearly so, which does not show that the dose was tolerated: the source hardly ever lists a survival T/C far under the control, and the zero likely stands for such cases as well. Survivors were counted at the toxicity check, usually on the fifth day, unless a day is given; later deaths do not show. Schedule codes are those of the source, taken here to give the interval after Q, in days (D) or hours (H), and the number of doses after X. Some entries hold several experiments; the values are given in rising order. For survival time, this PubChem deposit counts one and a half times the control or more as active, and values a quarter to a half above the control carry no call in these data; other NCI protocols may use other cut-offs.
# System: P388 leukemia ip, CD2F1 mice, survival T/C
# Assay: NCI In Vivo Anticancer Drug Screen. Data for tumor model P388 Leukemia (intraperitoneal) in CD2F1 (CDF1) mice
# Conditions: T/C endpoint: median survival time, higher T/C = longer survival
# [1] = dose: 25.0 mg/kg/injection, schedule: Q01DX009 (ip), vehicle: saline
# [2] = dose: 50.0 mg/kg/injection, schedule: Q01DX009 (ip), vehicle: saline
# [3] = dose: 100.0 mg/kg/injection, schedule: Q01DX005 (ip), vehicle: saline with Tween-80
# [4] = dose: 200.0 mg/kg/injection, schedule: Q01DX005 (ip), vehicle: saline with Tween-80
# [5] = dose: 400.0 mg/kg/injection, schedule: Q01DX001 (ip), vehicle: saline with Tween-80
# [6] = dose: 200.0 mg/kg/injection, schedule: Q01DX009 (ip), vehicle: saline with Tween-80
# [7] = dose: 100.0 mg/kg/injection, schedule: Q01DX009 (ip), vehicle: saline with Tween-80
# [8] = dose: 25.0 mg/kg/injection, schedule: Q01DX005 (ip), vehicle: Klucel (hydroxypropylcellulose) (HPC)
# [9] = dose: 50.0 mg/kg/injection, schedule: Q01DX005 (ip), vehicle: Klucel (hydroxypropylcellulose) (HPC)
# [10] = dose: 100.0 mg/kg/injection, schedule: Q01DX005 (ip), vehicle: Klucel (hydroxypropylcellulose) (HPC)
# [11] = dose: 200.0 mg/kg/injection, schedule: Q01DX005 (ip), vehicle: Klucel (hydroxypropylcellulose) (HPC)
smiles,measurement,setting,value
C=C1C(=O)OC2C1CC(O)/C(C)=C\CCC1(C)OC21 (centres undefined),T/C,"dose: 60.0 mg/kg/injection, schedule: Q01DX009 (ip), vehicle: distilled water + Tween-80 + alcohol",130 % of control
same,T/C,"dose: 70.0 mg/kg/injection, schedule: Q01DX009 (ip), vehicle: distilled water + Tween-80 + alcohol",129 % of control
same,T/C,"dose: 80.0 mg/kg/injection, schedule: Q01DX009 (ip), vehicle: water",125 % of control
same,T/C,"dose: 90.0 mg/kg/injection, schedule: Q01DX009 (ip), vehicle: distilled water + Tween-80 + alcohol",148 % of control
same,survivor count,"dose: 90.0 mg/kg/injection, schedule: Q01DX009 (ip), vehicle: water",2 of 4
same,survivor count,"dose: 100.0 mg/kg/injection, schedule: Q01DX009 (ip), vehicle: distilled water + Tween-80 + alcohol",3 of 4 and 4 of 4
same,survivor count,"dose: 200.0 mg/kg/injection, schedule: Q01DX009 (ip), vehicle: distilled water + Tween-80 + alcohol",0 of 4
CC(=O)SC1C(=O)N(C)C(SC(C)=O)C(=O)N1C (centres undefined),survivor count,[1],4 of 6
same,survivor count,[2],5 of 6
same,survivor count,"dose: 100.0 mg/kg/injection, schedule: Q01DX009 (ip), vehicle: saline",2 of 6
same,survivor count,"dose: 200.0 mg/kg/injection, schedule: Q01DX009 (ip), vehicle: saline",0 of 6
CN=NN(C)C(=O)NC,T/C,"dose: 50.0 mg/kg/injection, schedule: Q01DX005 (ip), vehicle: saline",137 and 144 % of control
same,survivor count,"dose: 100.0 mg/kg/injection, schedule: Q01DX005 (ip), vehicle: saline",6 of 6
same,survivor count,"dose: 200.0 mg/kg/injection, schedule: Q01DX005 (ip), vehicle: saline",3 of 6
COc1cc2cnc(-c3ccncc3)cc2cc1OC,survivor count,"dose: 400.0 mg/kg/injection, schedule: Q04DX003 (ip), vehicle: saline",0 of 6
CNC(C)Cc1ccccc1 (centres undefined) (tested in a mixture with another compound),survivor count,[3],1 of 6
same,survivor count,[4],0 of 6
CN1CNC(=O)NC1,T/C,[2],126 % of control
CCOP(=O)(O)SP(=O)(O)OCC.CCOP(=O)(O)SP(=O)(O)OCC.[Mn],survivor count,"dose: 200.0 mg/kg/injection, schedule: Q04DX002 (ip), vehicle: saline",0 of 6
same,survivor count,"dose: 400.0 mg/kg/injection, schedule: Q04DX002 (ip), vehicle: saline",0 of 6
CC(=O)OC1C2CCC3C(C)(O)C4CC(O)C(C)(C)C4(O)C(O)CC13CC2(C)O (centres undefined),survivor count,"dose: 0.78 mg/kg/injection, schedule: Q01DX009 (ip), vehicle: saline",2 of 6
same,survivor count,"dose: 1.56 mg/kg/injection, schedule: Q01DX009 (ip), vehicle: saline",0 of 6
same,survivor count,"dose: 2.0 mg/kg/injection, schedule: Q01DX009 (ip), vehicle: saline",0 of 6
same,survivor count,"dose: 3.12 mg/kg/injection, schedule: Q01DX009 (ip), vehicle: saline",0 of 6
same,survivor count,"dose: 6.25 mg/kg/injection, schedule: Q01DX009 (ip), vehicle: saline",0 of 6
same,survivor count,"dose: 12.5 mg/kg/injection, schedule: Q01DX009 (ip), vehicle: saline",0 of 6
same,survivor count,[1],0 of 6
same,survivor count,[2],0 of 6
CNC(=N)c1ccc(NC(=N)c2ccc(NC(=N)c3ccc(NC(=N)c4ccc(C(=N)NC)cc4)cc3)cc2)cc1,survivor count,"dose: 30.0 mg/kg/injection, schedule: Q01DX009 (ip), vehicle: saline with Tween-80",2 of 6
Cc1cc(SSc2cc(C)nc(N)n2)nc(N)n1,survivor count,[5],3 of 6
CC(=O)Oc1cc2oc([O-])c[n+]2c2ccccc12,survivor count,"dose: 120.0 mg/kg/injection, schedule: Q01DX005 (ip), vehicle: Klucel + Tween-80",3 of 6
same,survivor count,"dose: 240.0 mg/kg/injection, schedule: Q01DX005 (ip), vehicle: Klucel + Tween-80",0 of 6
same,survivor count,[5],0 of 6 and 2 of 5
Nc1cc2c(c[n+](CCO)c3ccccc23)c2ccccc12,survivor count,"dose: 200.0 mg/kg/injection, schedule: Q04DX003 (ip), vehicle: other",6 of 6
Cc1c(COC(=O)NC(C)C)c(COC(=O)NC(C)C)c2n1CSC2,T/C,"dose: 12.5 mg/kg/injection, schedule: Q01DX005 (ip), vehicle: Klucel + Tween-80",142 % of control
same,survivor count,"dose: 50.0 mg/kg/injection, schedule: Q01DX005 (ip), vehicle: Klucel + Tween-80",5 of 6 and 6 of 6
same,survivor count,"dose: 100.0 mg/kg/injection, schedule: Q01DX005 (ip), vehicle: Klucel + Tween-80",3 of 6
same,survivor count,"dose: 200.0 mg/kg/injection, schedule: Q01DX005 (ip), vehicle: Klucel + Tween-80",0 of 6
Cl/N=C(\Nc1ccccc1)c1ccccn1,survivor count,[6],3 of 6
CC(C)C12C=CC(C)(CC1)OO2 (centres undefined),survivor count,[7],0 of 6
same,survivor count,[6],0 of 6
same,survivor count,"dose: 400.0 mg/kg/injection, schedule: Q01DX009 (ip), vehicle: saline with Tween-80",0 of 6
O=[n+]1c2c(n([O-])c3cc(Cl)c(Cl)cc31)CCCC2,survivor count,[7],4 of 6
same,survivor count,[6],0 of 6
N#CC(C#N)=C(C#N)c1ccccc1,survivor count,"dose: 50.0 mg/kg/injection, schedule: Q01DX009 (ip), vehicle: saline with Tween-80",3 of 6
CCC12CCCN3CCc4c(n(c5ccc(Br)cc45)C(=O)CC1)C32 (centres undefined),survivor count,[3],6 of 6
same,survivor count,[4],6 of 6
COc1cc2cc(c1Cl)N(C)C(=O)CC(OC(=O)C(C)NC(=O)C(C)C)C1(C)OC1C(C)C1CC(O)(NC(=O)O1)C(OC)/C=C/C=C(C)C2OC (centres undefined),T/C,"dose: 4.0 micrograms/kg/injection, schedule: Q01DX009 (ip), vehicle: distilled water + alcohol",126 % of control
same,T/C,"dose: 32.0 micrograms/kg/injection, schedule: Q01DX009 (ip), vehicle: distilled water + alcohol",130 % of control
same,T/C,"dose: 64.0 micrograms/kg/injection, schedule: Q01DX009 (ip), vehicle: distilled water + alcohol",132 % of control
same,T/C,"dose: 128.0 micrograms/kg/injection, schedule: Q01DX009 (ip), vehicle: distilled water + alcohol",132 % of control
O=C1c2ccccc2CC1CN1CCCCC1 (centres undefined),survivor count,"dose: 25.0 mg/kg/injection, schedule: Q04DX002 (ip), vehicle: saline with Tween-80",2 of 6
same,survivor count,"dose: 50.0 mg/kg/injection, schedule: Q04DX002 (ip), vehicle: saline with Tween-80",0 of 6
same,survivor count,"dose: 100.0 mg/kg/injection, schedule: Q04DX002 (ip), vehicle: saline with Tween-80",0 of 6
O=[N+]([O-])c1ccccc1NN=NCCCl,T/C,"dose: 6.25 mg/kg/injection, schedule: Q01DX005 (ip), vehicle: Klucel (hydroxypropylcellulose) (HPC)",125 % of control
same,T/C,"dose: 12.5 mg/kg/injection, schedule: Q01DX005 (ip), vehicle: Klucel (hydroxypropylcellulose) (HPC)",125 and 134 % of control
same,T/C,[8],129 % of control
same,survivor count,[9],5 of 5
same,survivor count,[10],4 of 5
same,survivor count,[11],4 of 5
CCOC(=C\C(=O)NC)/C=C/c1ccc([N+](=O)[O-])cc1,survivor count,[8],6 of 6
same,survivor count,[9],6 of 6
same,survivor count,[10],6 of 6
same,survivor count,[11],6 of 6
O=CC1=CSC(=C2SC=CS2)S1,survivor count,"dose: 120.0 mg/kg/injection, schedule: Q01DX005 (ip), vehicle: Klucel (hydroxypropylcellulose) (HPC)",3 of 6
same,survivor count,"dose: 240.0 mg/kg/injection, schedule: Q01DX005 (ip), vehicle: Klucel (hydroxypropylcellulose) (HPC)",0 of 6
CCCCCOC(=O)c1ccccc1N,survivor count,"dose: 200.0 mg/kg/injection, schedule: Q01DX009 (ip), vehicle: Klucel (hydroxypropylcellulose) (HPC)",3 of 6
CC1(C)CC(N2CCOCC2)=CC(=NCc2ccccc2)N1,survivor count,[10],0 of 6
same,survivor count,[11],0 of 6
